According to patent US7160733B2, “Ligand specific to β2-glycoprotein I and use thereof” (priority 2001, dated 2007):

assay: TBARS (thiobarbituric acid reactive substance) amount of lipid

| Compound | TBARS of solid-phase lipid |
| --- | --- |
| CCCCC/C=C\C/C=C\C/C=C\C/C=C\CCCC(=O)O[C@H](COC(=O)CCCCCCCCCCCCCCC)COP(=O)([O-])OCC[N+](C)(C)C [PAPC, 1-Palmitoyl-2-arachidonoyl-phosphatidylcholine, reference compound] | PAPC (107.8) nmol (malondialdehyde equivalent)/mg (lipid) |
| CC(C)CCC[C@@H](C)[C@H]1CC[C@H]2[C@@H]3C(=O)C=C4C[C@@H](OC(=O)CCCCCCCC(=O)O)CC[C@]4(C)[C@H]3CC[C@]12C [oxLig-1, 9-oxo-9-(7-ketocholest-5-en-3β-yloxy)nonanoic acid] | oxLig-1 (0.66) nmol (malondialdehyde equivalent)/mg (lipid) |
| Cardiolipin [CL, reference compound] | CL (4.46) nmol (malondialdehyde equivalent)/mg (lipid) |
